From patent US20150337049A1 come the findings set out here.

The test addresses human CD3 on the human T-cell line Jurkat (human). The test can be described thus: FACS, Jurkat cells. On the technique in general: Flow cytometry measures light scatter and fluorescence of single cells or particles in a stream.

Substitutions are numbered along the chain they refer to. Numbers in names are those of the source. These are yes or no findings as the source states them, for the method shown. Binding can be weak; no strength is given.

B1: IgG1-CD3-… (IgG1-huCLB-T3/4-F405L with L234F/L235E/D265A/N297Q/P331S) (antibody)
heavy: EVQLVESGGGLVKPGGSLRLSCAASGFTFSSYGMFWVRQAPGKGLEWVATISRYSRYIYYPDSVKGRFTISRDNAKNSLYLQMNSLRAEDTAVYYCARRPLYGSSPDYWGQGTLVTVSSASTKGPSVFPLAPSSKSTSGGTAALGCLVKDYFPEPVTVSWNSGALTSGVHTFPAVLQSSGLYSLSSVVTVPSSSLGTQTYICNVNHKPSNTKVDKRVEPKSCDKTHTCPPCPAPEFEGGPSVFLFPPKPKDTLMISRTPEVTCVVVAVSHEDPEVKFNWYVDGVEVHNAKTKPREEQYQSTYRVVSVLTVLHQDWLNGKEYKCKVSNKALPASIEKTISKAKGQPREPQVYTLPPSREEMTKNQVSLTCLVKGFYPSDIAVEWESNGQPENNYKTTPPVLDSDGSFLLYSKLTVDKSRWQQGNVFSCSVMHEALHNHYTQKSLSLSPGK
VL: EIVLTQSPATLSLSPGERATLSCSASSSVTYVHWYQQKPGQAPRLLIYDTSKLASGIPARFSGSGSGTDFTLTISSLEPEDFAVYYCFQGSGYPLTFGSGTKLEMR
On to B1, for which the binding result was “binds”.

B2: IgG1-CD3-LFLENQ (IgG1-huCLB-T3/4-F405L with L234F/L235E/N297Q) (antibody)
heavy: B1 heavy with A267D, S333P
VL: B1 VL
In the case of B2, the binding result is “binds”.
